{"source": "patent US11926610B1", "about": "“9-(2-hydroxypyridin-3-yl)10-(2-hydroxyethyl)-3,6-diphenyl-3,4,6,7,9,10-hexahydroacridine1,8(2H,5H)-dione as an antimicrobial compound” (KING FAISAL UNIVERSITY, priority 2023, dated 2024)", "type_in_all_cases": "cell-based", "key": {"[1]": {"tested_on": "Escherichia coli", "experiment": "Antimicrobial screening by agar dilution, Escherichia coli", "details": "E. Coli", "protocol": "(§1) The antibacterial properties of the synthesized compound 9-(2-hydroxypyridin-3-yl)-10-(2-hydroxyethyl)-3,6-diphenyl-3,4,6,7,9,10-hexahydroacridine1,8(2H,5H)-dione were studied by the method of agar dilution. Test solutions of each compound was prepared in concentration of 1% using dimethylformamide as a solvent then they are diluted in physiological solution to obtain the final experimental dilutions 1:100, 1:200, 1:400, 1:800. The effect of these substances are compared with furacillin in a controllable study. The testing microbes used were gram positive bacteria Staphylococcus aureus, gram negative bacteria Pseudomonas aeruginosa and Escherichia coli and Candida albicans fungus. The experiments used for this survey were meat-pentonlu agar (EPA) for cultivation of bacteria and Saburo environment for the fungus. Each experiment used 1 mL of test solution on each plate […]. Two drops of emulsified with microbes feel were added. All experimental samples were taken from the agar after 10, 20, 40, 60 minutes in the environment on the basis of Patrk planted. The bacteria were cultivated at a temperature of 37° C. for 1 day and the mushroom was kept in a thermostat for 2 hours at a temperature of 28° C. Then results were checked."}, "[2]": {"tested_on": "Candida albicans", "experiment": "Antimicrobial screening by agar dilution, Candida albicans", "protocol": "as §1"}, "[3]": {"tested_on": "Pseudomonas aeruginosa", "experiment": "Antimicrobial screening by agar dilution, Pseudomonas aeruginosa", "details": "Ps. Aeroqonaza", "protocol": "as §1"}, "[4]": {"tested_on": "Staphylococcus aureus", "experiment": "Antimicrobial screening by agar dilution, Staphylococcus aureus", "details": "St. Aereus", "protocol": "as §1"}, "[5]": {"details": "dilution rate 1:100, exposure time 10 min"}, "[6]": {"details": "dilution rate 1:100, exposure time 20 min"}, "[7]": {"details": "dilution rate 1:100, exposure time 40 min"}, "[8]": {"details": "dilution rate 1:100, exposure time 60 min"}, "[9]": {"details": "dilution rate 1:200, exposure time 10 min"}, "[10]": {"details": "dilution rate 1:200, exposure time 20 min"}, "[11]": {"details": "dilution rate 1:200, exposure time 40 min"}, "[12]": {"details": "dilution rate 1:200, exposure time 60 min"}, "[13]": {"details": "dilution rate 1:400, exposure time 10 min"}, "[14]": {"details": "dilution rate 1:400, exposure time 20 min"}, "[15]": {"details": "dilution rate 1:400, exposure time 40 min"}, "[16]": {"details": "dilution rate 1:400, exposure time 60 min"}, "[17]": {"details": "dilution rate 1:800, exposure time 10 min"}, "[18]": {"details": "dilution rate 1:800, exposure time 20 min"}, "[19]": {"details": "dilution rate 1:800, exposure time 40 min"}, "[20]": {"details": "dilution rate 1:800, exposure time 60 min"}}, "note": "At least one compound was matched to its structure with a doubt left."}
{"smiles": "NC(=O)N/N=C/c1ccc([N+](=O)[O-])o1", "note": "[Furacilin]", "values": [{"measurement": "antimicrobial activity (+/−)", "setting": "[1]; [5]", "result": "−"}, {"measurement": "antimicrobial activity (+/−)", "setting": "[1]; [6]", "result": "−"}, {"measurement": "antimicrobial activity (+/−)", "setting": "[1]; [7]", "result": "−"}, {"measurement": "antimicrobial activity (+/−)", "setting": "[1]; [8]", "result": "−"}, {"measurement": "antimicrobial activity (+/−)", "setting": "[1]; [9]", "result": "+"}, {"measurement": "antimicrobial activity (+/−)", "setting": "[1]; [10]", "result": "+"}, {"measurement": "antimicrobial activity (+/−)", "setting": "[1]; [11]", "result": "+"}, {"measurement": "antimicrobial activity (+/−)", "setting": "[1]; [12]", "result": "+"}, {"measurement": "antimicrobial activity (+/−)", "setting": "[1]; [13]", "result": "+"}, {"measurement": "antimicrobial activity (+/−)", "setting": "[1]; [14]", "result": "+"}, {"measurement": "antimicrobial activity (+/−)", "setting": "[1]; [15]", "result": "+"}, {"measurement": "antimicrobial activity (+/−)", "setting": "[1]; [16]", "result": "+"}, {"measurement": "antimicrobial activity (+/−)", "setting": "[1]; [17]", "result": "+"}, {"measurement": "antimicrobial activity (+/−)", "setting": "[1]; [18]", "result": "+"}, {"measurement": "antimicrobial activity (+/−)", "setting": "[1]; [19]", "result": "+"}, {"measurement": "antimicrobial activity (+/−)", "setting": "[1]; [20]", "result": "+"}, {"measurement": "antimicrobial activity (+/−)", "setting": "[2]; [5]", "result": "−"}, {"measurement": "antimicrobial activity (+/−)", "setting": "[2]; [6]", "result": "−"}, {"measurement": "antimicrobial activity (+/−)", "setting": "[2]; [7]", "result": "+"}, {"measurement": "antimicrobial activity (+/−)", "setting": "[2]; [8]", "result": "+"}, {"measurement": "antimicrobial activity (+/−)", "setting": "[2]; [9]", "result": "+"}, {"measurement": "antimicrobial activity (+/−)", "setting": "[2]; [10]", "result": "+"}, {"measurement": "antimicrobial activity (+/−)", "setting": "[2]; [11]", "result": "+"}, {"measurement": "antimicrobial activity (+/−)", "setting": "[2]; [12]", "result": "+"}, {"measurement": "antimicrobial activity (+/−)", "setting": "[2]; [13]", "result": "+"}, {"measurement": "antimicrobial activity (+/−)", "setting": "[2]; [14]", "result": "+"}, {"measurement": "antimicrobial activity (+/−)", "setting": "[2]; [15]", "result": "+"}, {"measurement": "antimicrobial activity (+/−)", "setting": "[2]; [16]", "result": "+"}, {"measurement": "antimicrobial activity (+/−)", "setting": "[2]; [17]", "result": "+"}, {"measurement": "antimicrobial activity (+/−)", "setting": "[2]; [18]", "result": "+"}, {"measurement": "antimicrobial activity (+/−)", "setting": "[2]; [19]", "result": "+"}, {"measurement": "antimicrobial activity (+/−)", "setting": "[2]; [20]", "result": "+"}, {"measurement": "antimicrobial activity (+/−)", "setting": "[3]; [5]", "result": "+"}, {"measurement": "antimicrobial activity (+/−)", "setting": "[3]; [6]", "result": "+"}, {"measurement": "antimicrobial activity (+/−)", "setting": "[3]; [7]", "result": "+"}, {"measurement": "antimicrobial activity (+/−)", "setting": "[3]; [8]", "result": "+"}, {"measurement": "antimicrobial activity (+/−)", "setting": "[3]; [9]", "result": "+"}, {"measurement": "antimicrobial activity (+/−)", "setting": "[3]; [10]", "result": "+"}, {"measurement": "antimicrobial activity (+/−)", "setting": "[3]; [11]", "result": "+"}, {"measurement": "antimicrobial activity (+/−)", "setting": "[3]; [12]", "result": "+"}, {"measurement": "antimicrobial activity (+/−)", "setting": "[3]; [13]", "result": "+"}, {"measurement": "antimicrobial activity (+/−)", "setting": "[3]; [14]", "result": "+"}, {"measurement": "antimicrobial activity (+/−)", "setting": "[3]; [15]", "result": "+"}, {"measurement": "antimicrobial activity (+/−)", "setting": "[3]; [16]", "result": "+"}, {"measurement": "antimicrobial activity (+/−)", "setting": "[3]; [17]", "result": "+"}, {"measurement": "antimicrobial activity (+/−)", "setting": "[3]; [18]", "result": "+"}, {"measurement": "antimicrobial activity (+/−)", "setting": "[3]; [19]", "result": "+"}, {"measurement": "antimicrobial activity (+/−)", "setting": "[3]; [20]", "result": "+"}, {"measurement": "antimicrobial activity (+/−)", "setting": "[4]; [5]", "result": "−"}, {"measurement": "antimicrobial activity (+/−)", "setting": "[4]; [6]", "result": "−"}, {"measurement": "antimicrobial activity (+/−)", "setting": "[4]; [7]", "result": "−"}, {"measurement": "antimicrobial activity (+/−)", "setting": "[4]; [8]", "result": "−"}, {"measurement": "antimicrobial activity (+/−)", "setting": "[4]; [9]", "result": "+"}, {"measurement": "antimicrobial activity (+/−)", "setting": "[4]; [10]", "result": "+"}, {"measurement": "antimicrobial activity (+/−)", "setting": "[4]; [11]", "result": "+"}, {"measurement": "antimicrobial activity (+/−)", "setting": "[4]; [12]", "result": "+"}, {"measurement": "antimicrobial activity (+/−)", "setting": "[4]; [13]", "result": "+"}, {"measurement": "antimicrobial activity (+/−)", "setting": "[4]; [14]", "result": "+"}, {"measurement": "antimicrobial activity (+/−)", "setting": "[4]; [15]", "result": "+"}, {"measurement": "antimicrobial activity (+/−)", "setting": "[4]; [16]", "result": "+"}, {"measurement": "antimicrobial activity (+/−)", "setting": "[4]; [17]", "result": "+"}, {"measurement": "antimicrobial activity (+/−)", "setting": "[4]; [18]", "result": "+"}, {"measurement": "antimicrobial activity (+/−)", "setting": "[4]; [19]", "result": "+"}, {"measurement": "antimicrobial activity (+/−)", "setting": "[4]; [20]", "result": "+"}]}
